Assay results: PubChem BioAssay AID624297 (National Center for Advancing Translational Sciences (NCATS), 2012)
Out of some 340,000 compounds screened, about 6,200 (1.8%) were called active. This list was built around the results that the source calls inconclusive (neither active nor inactive); the mix of calls is not that of the screen. The call rests on the fitted dose curve; in most records, active means well fitted activation curve with a large enough effect; inconclusive means small, poorly fitted or top-dose-only effect; inactive means no such curve, though single readings can be large or run the other way. Where the call is inconclusive, the potency comes from a doubtful curve fit.

Assay: A quantitative high throughput screen for small molecules that induce DNA re-replication in SW480 colon adenocarcinoma cells. Further: nearly all actives have a fitted effect of over 55% in size. On re-replication activation: % of control where 0% means no effect.
Conditions: Hoechst DNA content imaging, 48 h; re-replication activation: at 46.1 µM (top of the series)
Procedure, shortened: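 Compounds, transferred as 23 nL by pin tool, were incubated with cells for 48 hr; DNA content per nucleus was then quantified by Hoechst staining and fluorescence plate imaging.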
Potency means the concentration at half of the fitted maximal effect.

| Structure (SMILES) | re-replication activation | Potency |
| --- | --- | --- |
| Cc1ccc(OCC(=O)NC2=NCCS2)cc1 | inactive: 14.7% | – |
| CCc1ccc(NC(=O)CN2CCC(C(=O)c3ccc(OC)cc3)CC2)cc1 | – | inconclusive: 29.1 µM [activator, single point] |
| O=C(NCC1CCCN(Cc2cccc(C(F)(F)F)c2)C1)c1ccc(F)cc1 (stereo not drawn) | – | inconclusive: 0.651 µM [activator, full curve, poor fit] |
| Cn1cccc1C(=O)C(=O)Nc1cc(Cl)cc(Cl)c1 | – | inconclusive: 25.9 µM [activator, single point] |
| Cc1cc(Nc2ccccc2Cl)nc(-c2ccccc2O)n1 | – | inconclusive: 25.9 µM [activator, single point] |
| CCOC(=O)c1c(NC(=O)CC2SC(N)=NC2=O)sc2c1CCCC2 (stereo not drawn) | – | inconclusive: 7.31 µM [activator, partial curve, poor fit] |
| Cc1ccc(C2/C(=C(\O)c3ccc4c(c3)OCCO4)C(=O)C(=O)N2CC2CCCO2)cc1 (stereo not drawn) | – | inconclusive: 23.1 µM [activator, single point] |
| CCCCCCCC(=O)NNC(=O)CC(=O)Nc1ccccc1C(=O)O | inactive: -5.04% | – |
| CCCCCC(O)(c1ccc(OC)cc1)C(CN1CCOCC1)c1ccccc1 (stereo not drawn) | – | inconclusive: 18.4 µM [activator, single point] |
| Nn1c(SCC(=O)Nc2cc(C(F)(F)F)ccc2Cl)nncc1=O | inactive: -4.61% | – |
| Cc1c(C#N)c(NC(=O)CCl)n(Cc2cccs2)c1C | – | active: 5.8 µM |
| CC(C)c1c(C#N)c(N)nc(SCC(=O)c2cc3ccccc3oc2=O)c1C#N | – | inconclusive: 20.6 µM [activator, single point] |
| CN(C)c1ccc(/C=C2/C[N+](C)(C)C/C(=C/c3ccc(N(C)C)cc3)C2=O)cc1 | – | inconclusive: 25.9 µM [activator, partial curve, poor fit] |
| O=C(Nc1nnc(C2CC2)s1)c1cc2ccccc2o1 | – | inconclusive: 6.51 µM [activator, single point] |
| O=C(NCC1CCCO1)c1ccc2c(=O)n(CC3CCCO3)c(=S)[nH]c2c1 (stereo not drawn) | inactive: -4.34% | – |
| CCCCCCCc1ccc(C2NC(=S)NC3=C2C(=O)c2ccccc23)cc1 (stereo not drawn) | inactive: 1.06% | – |
| CCOC(=O)c1cnc(-n2nc(C)cc2C)nc1NC1CCCCC1 | – | inconclusive: 35.5 µM [activator, partial curve, poor fit] |
| CC(=O)c1ccc(N2C(=O)C3C(C2=O)C(C(=O)c2ccc(Cl)cc2)N2CCCC32)cc1 (stereo not drawn) | – | inconclusive: 18.4 µM [activator, single point] |
| Cc1ccc[n+](CC(=O)Nc2ccc(C)c(C)c2)c1 | inactive: -7.66% | – |
| CS(=O)(=O)N1CCN(c2ccc(NC(=O)c3cc4ccccc4o3)cc2)CC1 | inconclusive: 45.3% [activator] | – |
| COc1ccccc1CN(C)c1ccc(S(=O)(=O)N2CCN(C)CC2)cn1 | inactive: -6.51% | – |
| O=C(Nc1ccc(N=Nc2ccccc2)cc1)c1ccc(Cl)cc1Cl | – | inconclusive: 0.231 µM [activator, full curve, poor fit] |
| CCOc1ccc(OCCC(=O)OCC(=O)NC2CC2)cc1 | – | inconclusive: 4.61 µM [activator, full curve, poor fit] |
| Cc1cc(C)c(C(=O)C(C)OC(=O)Cn2cnc3c2c(=O)n(C)c(=O)n3C)cc1C (stereo not drawn) | – | inconclusive: 0.103 µM [activator, full curve, poor fit] |
| CC(C)(C)C(=O)C1=C(O)C(=O)N(Cc2ccccc2)C1c1ccccc1Cl (stereo not drawn) | inactive: -7.24% | – |

| Structure (SMILES) | re-replication activation | Potency |
| --- | --- | --- |
| CC(C)(C)c1cc(C(=O)NNc2cccc(Cl)c2)n(Cc2ccccc2)n1 | inactive: 2.14% | – |
| O=C(CCCCCn1c(=O)[nH]c2ccccc2c1=O)N1CCN(Cc2ccc3c(c2)OCO3)CC1 | inactive: -2.32% | – |
| CSc1cccc(NC(=O)CN(C)S(=O)(=O)c2ccccc2)c1 | – | inconclusive: 4.61 µM [activator, partial curve, poor fit] |
| O=C(NCCC1CCCCN1S(=O)(=O)c1cccs1)C(=O)NCc1ccccc1 (stereo not drawn) | – | inconclusive: 29.1 µM [activator, single point] |
| O=C(CNC(=O)c1ccc(Br)cc1)c1ccc(Br)cc1 | inactive: 1.96% | – |
| Cc1[nH]c2ccccc2c1C(=O)/C=C/c1ccccc1 | – | inconclusive: 32.6 µM [activator, partial curve, poor fit] |
| Cc1nnc(NC(=O)CSc2nnc3scc(-c4ccc(C)c(C)c4)n23)s1 | inactive: 1.12% | – |
| CCOc1ccc(CSC(=N)N)cc1Cl | – | inconclusive: 29.1 µM [activator, single point] |
| CC1Cc2ccccc2N1C(=O)CCn1c(=O)sc2ccccc21 (stereo not drawn) | inactive: -1.24% | – |
| CCOc1ccc(NC(=O)CCNC(=O)c2ccc(Br)cc2)cc1 | – | inconclusive: 23.1 µM [activator, single point] |
| O=C(CN1CCOCC1)N/N=C/c1ccc(-c2ccc(Br)cc2)o1 | – | inconclusive: 23.1 µM [activator, single point] |
| CC(NC(=O)Cn1c(NCCO)nc2ccccc21)C1CC2CCC1C2 (stereo not drawn) | inactive: -191% | – |
| COc1cc(C(=O)Nc2ccc(NC(=O)c3ccccc3)nc2)cc(OC)c1OC | inactive: -7.32% | – |
| CC1(C)c2ssc(=S)c2-c2ccccc2N1C(=O)c1ccco1 | – | inconclusive: 29.1 µM [activator, single point] |
| Cc1cc(C2N=C(N)Nc3nc4ccccc4n32)c(C)n1-c1ccccc1Cl (stereo not drawn) | – | inconclusive: 32.6 µM [activator, partial curve, poor fit] |
| O=C1CCCN1c1ccc(S(=O)(=O)N2CCC(c3ccccc3)CC2)cc1 | inactive: -4.31% | – |
| C=CCc1cccc(/C=N/NC(=O)CNc2cccc3ccccc23)c1O | – | inconclusive: 2.06 µM [activator, partial curve, poor fit] |
| CN(CC(=O)Nc1ccccc1Br)C(=O)c1ccccc1OCc1ccccc1Cl | inactive: -106% | – |
| CCc1ccc([C@H]2C(C(=O)O)=C[C@@H](C(C)(C)C)N2S(=O)(=O)c2ccc(C)cc2)cc1 | – | inconclusive: 0.116 µM [activator, full curve, poor fit] |
| O=C(NCc1ccc2c(c1)OCO2)Oc1ccccc1 | – | inconclusive: 32.6 µM [activator, partial curve, poor fit] |
| CCCCc1cc(=O)oc2cc(OCC(=O)N3CCOCC3)ccc12 | inactive: -24.8% | – |
| O=C(CSc1nc(-c2ccccc2)c(-c2ccccc2)[nH]1)NCCN1C(=O)CSC1=O | – | inconclusive: 16.4 µM [activator, single point] |
| O=C(Nc1ccccc1)C1=C(c2ccccc2)S(=O)(=O)CCS1(=O)=O | – | active: 1.3 µM |
| CCOC(=O)c1ccc2c(c1)NCc1cccc(OC)c1O2 | inactive: -4.85% | – |
| Cc1cc(C)nc(N/N=C/c2ccco2)n1 | inactive: -4.18% | – |

Filtered by structure: those above with a COOH group.

| Structure (SMILES) | re-replication activation | Potency |
| --- | --- | --- |
| CCCCCCCC(=O)NNC(=O)CC(=O)Nc1ccccc1C(=O)O | inactive: -5.04% | – |
| CCc1ccc([C@H]2C(C(=O)O)=C[C@@H](C(C)(C)C)N2S(=O)(=O)c2ccc(C)cc2)cc1 | – | inconclusive: 0.116 µM [activator, full curve, poor fit] |

The results go on.

| Structure (SMILES) | re-replication activation | Potency |
| --- | --- | --- |
| Cc1ccccc1NC(=O)Cc1nc(COC(=O)CCC(=O)c2ccccc2)cs1 | – | inconclusive: 20.6 µM [activator, single point] |
| O=c1[nH]c2ccccc2n1CCC1CCCCC1 | inactive: 0.0837% | – |
| COc1ccc(C(=O)c2sc3nc(-c4ccc(OC)cc4)ccc3c2N)cc1 | – | inconclusive: 8.2 µM [activator, partial curve] |
| O=C(c1noc2c1CCCCC2)N1CCN(C(c2ccccc2)c2ccccc2)CC1 | inactive: -0.735% | – |
| COc1cc(NC(=O)c2csc(N)n2)cc(C(=O)Nc2cccc(C(F)(F)F)c2)c1 | – | inconclusive: 18.4 µM [activator, single point] |
| CC(C)(C)OC(=O)N1CCN(CCNC(=O)c2ccccc2)CC1 | inactive: 1.93% | – |
| Cc1sc(NC(=O)c2cc(-c3ccc(Cl)cc3)nc3ccccc23)c(C(N)=O)c1C | – | inconclusive: 18.4 µM [activator, single point] |
| CCN(CC(=O)Nc1cc(Cl)ccc1C)C(=O)Cc1sc(C)nc1-c1ccc(F)cc1 | – | inconclusive: 6.51 µM [activator, partial curve, poor fit] |
| O=c1c2cc(Cl)ccc2nc(-c2ccccc2Cl)n1O | inactive: -2.55% | – |
| CCC(=O)/C=C1/Sc2ccc(OC)cc2N1CCO | inactive: 3.07% | – |
| COc1ccc(/C=C/C(=O)NC(=S)Nc2ccc(Br)cn2)cc1 | – | inconclusive: 8.2 µM [activator, partial curve] |
| O=C(Nc1c2c(nn1-c1ccc([N+](=O)[O-])cc1)CS(=O)(=O)C2)c1ccco1 | inactive: -5.99% | – |
| Cc1ccc(C)c(C(=O)COC(=O)C2CCN(c3ccc(C(F)(F)F)cn3)CC2)c1 | inactive: 1.06% | – |
| CCc1ccc(-c2cc(C(=O)N/N=C/c3ccco3)[nH]n2)cc1 | inactive: -1.38% | – |
| CC(=O)N1CC(C)Oc2ccc(S(=O)(=O)Nc3ccc(Cl)cn3)cc21 (stereo not drawn) | – | inconclusive: 29.1 µM [activator, single point] |
| Cc1cc(C)c(NC(=O)C(C)c2cccc(C(=O)c3ccccc3)c2)c(C)c1 (stereo not drawn) | – | inconclusive: 25.9 µM [activator, partial curve, poor fit] |
| O=C(Nc1ccc([N+](=O)[O-])cc1)Nc1ccc(OC(F)F)c(Cl)c1 | – | active: 18.4 µM |
| NC(=O)C1(N2CCCCC2)CCN(Cc2ccccc2Cl)CC1 | – | active: 11.6 µM |
| O=C(O)C(=O)/C(=C\c1cccc(Cl)c1)c1ccc2ccccc2n1 | – | inconclusive: 13 µM [activator, partial curve, poor fit] |
| CCOC(=O)c1c(N)sc(C(=O)N2CCCC2)c1C | – | inconclusive: 29.1 µM [activator, single point] |
| Cc1nc2ccc(NC(=O)c3cc(S(=O)(=O)N4CCOCC4)ccc3C)cc2s1 | inactive: 0.246% | – |
| COc1cc(CNC2CCCCCCC2)cc(Br)c1OCC#N | – | inconclusive: 29.1 µM [activator, single point] |
| Cc1cc(C)c(C(N)=O)c(SCC(=O)c2ccc(Cl)cc2)n1 | – | inconclusive: 29.1 µM [activator, partial curve, poor fit] |

Among those listed so far, ten have an aryl methoxy group.

| Structure (SMILES) | re-replication activation | Potency |
| --- | --- | --- |
| CCc1ccc(NC(=O)CN2CCC(C(=O)c3ccc(OC)cc3)CC2)cc1 | – | inconclusive: 29.1 µM [activator, single point] |
| CCCCCC(O)(c1ccc(OC)cc1)C(CN1CCOCC1)c1ccccc1 (stereo not drawn) | – | inconclusive: 18.4 µM [activator, single point] |
| COc1ccccc1CN(C)c1ccc(S(=O)(=O)N2CCN(C)CC2)cn1 | inactive: -6.51% | – |
| COc1cc(C(=O)Nc2ccc(NC(=O)c3ccccc3)nc2)cc(OC)c1OC | inactive: -7.32% | – |
| CCOC(=O)c1ccc2c(c1)NCc1cccc(OC)c1O2 | inactive: -4.85% | – |
| COc1ccc(C(=O)c2sc3nc(-c4ccc(OC)cc4)ccc3c2N)cc1 | – | inconclusive: 8.2 µM [activator, partial curve] |
| COc1cc(NC(=O)c2csc(N)n2)cc(C(=O)Nc2cccc(C(F)(F)F)c2)c1 | – | inconclusive: 18.4 µM [activator, single point] |
| CCC(=O)/C=C1/Sc2ccc(OC)cc2N1CCO | inactive: 3.07% | – |
| COc1ccc(/C=C/C(=O)NC(=S)Nc2ccc(Br)cn2)cc1 | – | inconclusive: 8.2 µM [activator, partial curve] |
| COc1cc(CNC2CCCCCCC2)cc(Br)c1OCC#N | – | inconclusive: 29.1 µM [activator, single point] |
